Source: paper PMC4778017
These are yes or no findings as the source states them, for the method shown. Some results given as binding are weak or reduced against the parent protein; the word gives no strength. Values belong to the molecule of their own block, whether it stands above or below them.

Chains of the proteins cited; added tags and fusions are not shown. Lines headed by an entry give the natural chain unless they say otherwise; changes in a name come on top. A line that says so, or that is headed by a name, gives the form on record, which may keep a tag or linker.
chicken β-sarcoglycan (A0A8V0YPW9, form named): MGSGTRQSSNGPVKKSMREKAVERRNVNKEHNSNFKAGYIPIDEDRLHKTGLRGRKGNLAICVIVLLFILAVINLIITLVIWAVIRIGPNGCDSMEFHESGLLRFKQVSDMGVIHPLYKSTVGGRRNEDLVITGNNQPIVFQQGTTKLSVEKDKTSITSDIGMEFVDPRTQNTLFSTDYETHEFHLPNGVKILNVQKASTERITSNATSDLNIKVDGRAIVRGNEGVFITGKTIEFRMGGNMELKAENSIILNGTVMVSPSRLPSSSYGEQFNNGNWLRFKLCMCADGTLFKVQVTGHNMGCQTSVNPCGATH

Experiments:
[1] = target: T1, chicken BetaM (chicken) (UniProt Q2HZ96); assay: two-hybrid; chicken homologs of the interactors tested cross-wise with chicken and mouse BetaM and the mouse interactors, by the criteria of the library screening
T1 sequence: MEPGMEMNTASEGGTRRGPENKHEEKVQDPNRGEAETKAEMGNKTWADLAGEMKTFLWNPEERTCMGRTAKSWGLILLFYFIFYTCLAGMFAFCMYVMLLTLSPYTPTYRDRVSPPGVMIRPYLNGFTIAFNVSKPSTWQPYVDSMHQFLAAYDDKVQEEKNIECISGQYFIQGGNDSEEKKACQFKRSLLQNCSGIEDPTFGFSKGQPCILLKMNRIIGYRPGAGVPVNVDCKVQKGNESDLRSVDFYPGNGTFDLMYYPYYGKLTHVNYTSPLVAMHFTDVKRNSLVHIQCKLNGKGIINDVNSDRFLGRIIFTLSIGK

[2] = target: T2, full-length mouse BetaM (ATP1B4), GAL4 DNA binding domain bait (mouse) (UniProt Q99ME6); assay: two-hybrid; GAL4 yeast two-hybrid screen of a pretransformed 17 day mouse embryo cDNA library (Y187) with full-length mouse BetaM bait in AH109; mating, SD/-Trp/-Leu/-His 5 days at 30 °C, then SD/-Ade/-Trp/-Leu/-His with α-X-Gal; confirmed by co-transformation and mating with isolated prey plasmids
T2 sequence: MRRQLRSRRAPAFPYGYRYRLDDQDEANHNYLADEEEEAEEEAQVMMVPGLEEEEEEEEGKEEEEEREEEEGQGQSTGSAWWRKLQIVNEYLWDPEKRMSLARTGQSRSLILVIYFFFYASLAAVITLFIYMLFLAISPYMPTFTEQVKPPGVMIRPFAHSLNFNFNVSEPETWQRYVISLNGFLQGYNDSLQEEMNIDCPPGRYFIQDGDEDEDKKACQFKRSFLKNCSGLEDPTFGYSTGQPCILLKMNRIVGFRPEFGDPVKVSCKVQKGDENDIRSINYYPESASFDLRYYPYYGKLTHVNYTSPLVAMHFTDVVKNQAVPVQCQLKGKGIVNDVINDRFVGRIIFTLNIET

binding [1]: binds
Molecule: chicken β-sarcoglycan (from UniProt A0A8V0YPW9 1-313)

binding [2]: binds
B1: PHF3 prey, residues 168-397 (N-term. truncated) (domain or fragment, UniProt B2RQG2 168-397)
chain: SKVGVKPAERCQGKEEVYASLKSEHPKESRRSGRHAEQMDVAPEVSASSVDSSVSSCAGMKEEAEFDPKHACNNQGEVNVPSPELDCPLLSETSASVEEKNIEALMECKAKTNSSPLFKFPVREDEQSDLVSGELNDTIEGKDAGGKPDQESEEVKFPCEGDQTAEEPESSDVSSDSACANKNKAEKNEGAECHLELKNTVDIVDKPENSPQRNELETLGYGEDTESNDA

binding [2]: binds
B2: Reticulocalbin 3/RCN3 prey (protein, UniProt Q8BH97 1-328)
chain: MMWRWSFLLLLLLLRHWALGKPSPDAGPHGQDRVHHGTPLSEAPHDDAHGNFQYDHEAFLGRDVAKEFDKLSPEESQARLGRIVDRMDLAGDSDGWVSLAELRAWIAHTQQRHIRDSVSAAWHTYDTDRDGRVGWEELRNATYGHYEPGEEFHDVEDAETYKKMLARDERRFRVADQDGDSMATREELTAFLHPEEFPHMRDIVVAETLEDLDKNKDGYVQVEEYIADLYSEEPGEEEPAWVQTERQQFREFRDLNKDGRLDGSEVGYWVLPPSQDQPLVEANHLLHESDTDKDGRLSKAEILSNWNMFVGSQATNYGEDLTRHHDEL

binding [2]: binds
B3: Heme oxidase 2/HMOX2 prey (protein, UniProt O70252 1-315)
chain: MSSEVETSEGVDESEKNSMAPEKENHTKMADLSELLKEGTKEAHDRAENTQFVKDFLKGNIKKELFKLATTALYFTYSALEEEMDRNKDHPAFAPLYFPTELHRKAALIKDMKYFFGENWEEQVKCSEAAQKYVDRIHYVGQNEPELLVAHAYTRYMGDLSGGQVLKKVAQRALKLPSTGEGTQFYLFEHVDNAQQFKQFYRARMNALDLNLKTKERIVEEANKAFEYNMQIFSELDQAGSMLARETLEDGLPVHDGKGDIRKCPFYAAQPDKGTLGGSNCPFQTTVAVLRKPSLQLILAASVALVAGLLAWYYM

binding [2]: binds
B4: LZIP/CREB3 prey, residues 226-402 (domain or fragment, UniProt Q61817 226-402)
chain: ELQNKVQRLEEQNLSLLDQLRKLQAMVIEIANKTSSGSTCVLVLVFSFCLLLVPAMYSSDARGSVPAEYVVLHRKLRALPSEDDHQPKPSALSSELPMDSTHQSLDSSEHMFLVSSNFSCVLYHAPQAEQPLHWPLWDLSSEMLFSDSNLLLQANLSESEGWQPNHSPSLVIFQGRY
